Laboratory results as given in patent publication US11058661B2, “Compositions and methods for lowering triglycerides in a subject on concomitant statin therapy and having hsCRP levels of at least about 2 mg/L” (priority 2018, dated 2021).
“Also recorded” adds a separate entry of the source. At least one structure is not confirmed: it was looked up by name or label, or the drawing left a doubt.

Test system: statin-treated patients with fasting TG ≥200 and <500 mg/dL and baseline hsCRP ≥2.0 mg/L
Assay: ANCHOR post-hoc subgroup: lipid parameters, lipoproteins, markers of oxidation and inflammation
Format: in vivo, human
Conditions: 4 g/day vs placebo, baseline to week 12, Hodges-Lehmann median
Method: A multi-center, placebo-controlled, randomized, double-blind, 12-week study is performed to evaluate the efficacy and safety of >96% E-EPA in patients with fasting triglyceride levels ≥200 mg/dl and <500 mg/dl despite statin therapy (the mean of two qualifying entry values needs to be ≥185 mg/dl and at least one of the values needs to be ≥200 mg/dl). The primary objective of the study is to determine the efficacy of >96% E-EPA 2 g daily and 4 g daily, compared to placebo, in lowering fasting TG levels in patients with high risk for cardiovascular disease and with fasting TG levels ≥200 mg/dL and <500 mg/dL, despite treatment to LDL-C goal on statin therapy.
The population for this study is men and women >18 years of age with a body mass index ≤45 kg/m^2 with fasting TG levels greater than or equal to 200 mg/dl and less than 500 mg/dl and on a stable does of statin therapy (with or without ezetimibe). The statin must be atorvastatin, rosuvastatin or simvastatin. The dose of statin must be stable for ≥4 weeks prior to the LDL-C/TG baseline qualifying measurement for randomization. The statin dose will be optimal such that the patients are at their LDL-C goal at the LDL-C/TG baseline qualifying measurements. The same statin at the same dose will be continued until the study ends.
At the end of the 4-week diet and lifestyle stabilization period or the 6-week diet and stabilization and washout period, eligible patients will enter the 2-week LDL-C and TG qualifying period and will have their fasting LDL-C and TG levels measured at Visit 2 (Week-2) and Visit 3 (Week-1). Eligible patients must have an average fasting LDL-C level ≥40 mg/dL and <100 mg/dL and an average fasting TG level ≥200 mg/dL and <500 mg/dL to enter the 12-week double-blind treatment period. The LDL-C and TG levels for qualification will be based on the average (arithmetic mean) of the Visit 2 (Week-2) and Visit 3 (Week-1) values. If a patient's average LDL-C and/or TG levels from Visit 2 and Visit 3 fall outside the required range for entry into the study, an additional fasting lipid profile can be collected 1 week later at Visit 3.1. If a third sample is collected at Visit 3.1, entry into the study will be based on the average (arithmetic mean) of the values from Visit 3 and Visit 3.1. […]
For TG, TC, HDL-C, LDL-C, calculated non-HDL-C, and VLDL-C, baseline will be defined as the average of Visit 4 (Week 0) and the preceding lipid qualifying visit (either Visit 3 [Week-1] or if it occurs, Visit 3.1) measurements. […]
For TG, TC, HDL-C, LDL-C, calculated non-HDL-C, and VLDL-C, Week 12 endpoint will be defined as the average of Visit 6 (Week 11) and Visit 7 (Week 12) measurements. […]

## CC/C=C\C/C=C\C/C=C\C/C=C\C/C=C\CCCC(=O)OCC [Icosapent Ethyl, ethyl eicosapentaenoate]
Listed as EPA-E
  ICAM-1 Median Difference in % Change From Baseline vs Placebo: small and statistically insignificant; also recorded: not significantly changed
  IL-6 Median Difference in % Change From Baseline vs Placebo: small and statistically insignificant; also recorded: not significantly changed
  LDL-C Median Difference in % Change From Baseline vs Placebo: without increasing LDL-C
Listed as icosapent ethyl
  LDL-C Median Difference in % Change From Baseline vs Placebo: without increasing LDL-C
